PubChem BioAssay AID686943 – Drosophila RNAi Screening Center | 2013

Assay: 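Fly genes whose loss alters ERK activation after insulin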 (primary screen)
Cell system: Drosophila S2R+ haemocyte-like cells expressing YFP-tagged ERK (Rolled)
Reagents: long dsRNA against Drosophila genes
Challenge: insulin stimulation versus unstimulated cells; dose and duration not given
Measured: 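Antibody staining for doubly phosphorylated ERK divided by ERK-YFP signal, as plate z-scores, in insulin-treated and untreated cells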
Direction: replicate 1, z-score of dpERK with insulin and replicate 2, z-score of dpERK with insulin: higher = more active ERK per ERK-YFP after insulin; replicate 1, z-score of dpERK under basal conditions: higher = more basal active ERK per ERK-YFP; replicate 1, z-score of ERK-YFP with insulin: higher = more YFP-tagged ERK signal
The deposit covers about 23,000 reagents; below is an unselected part of those with a known target gene and a result. 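Extra replicates exist only for a retested subset of genes; insulin dose and duration not given; both raised and lowered dpERK matter.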 The numbers tell different reagents against one gene apart. A plus sign joins genes that one reagent is predicted to hit. Not stated in the record: the amount of reagent, the time to read-out.

predicted target | dsRNA no. | replicate 1, z-score of dpERK with insulin | replicate 2, z-score of dpERK with insulin | replicate 1, z-score of dpERK under basal conditions | replicate 1, z-score of ERK-YFP with insulin
Mdr65 | 1 | -0.01 | 0.28 | 0.46 | 0.32
CG2201 | 1 | 0.22 | -0.11 | -0.5 | 0.16
Hayan | 1 | 0.19 | 0.25 | 0.39 | -0.73
Hayan | 2 | 0.03 | 0.56 | 0.71 | 2.5
Pros28.2 (retired record) | 1 | -0.58 | -0.35 | 0.4 | -0.9
Cpr5C | 1 | 0.65 | -0.09 | 0.24 | 0.15
Vps26 | 1 | -0.29 | 0.49 | -0.77 | 0.11
CG31688 + CG31687 | 1 | -0.36 | -0.27 | -0.25 | -0.4
CG43755 | 1 | -0.96 | 0.36 | 0.72 | -0.01
CG12065 | 1 | 0.1 | 1 | -0.41 | 0.35
CG12065 | 2 | -0.39 | 0.32 | -0.68 | 0.21
ZnT35C | 1 | -1.14 | 0.03 | 0.2 | 0.42
CG33298 | 1 | 0.15 | 0.13 | -1.15 | 1.01
CG33298 | 2 | -0.02 | 0.23 | 3.36 | 0.19
CkIalpha | 1 | -1 | 0.05 | 0.77 | -0.69
CkIalpha | 2 | -0.22 | 0.34 | -0.14 | 0.16
CrzR | 1 | 0.5 | 0.13 | 0.12 | 0.43
CrzR | 2 | -0.13 | -0.81 | 0.33 | 0.3
Ccs | 1 | 0.25 | 0.06 | 0.64 | 0.24
sog | 1 | 0.22 | -0.07 | -0.77 | -1.67
CG18367 | 1 | 0.29 | 0.01 | -0.19 | 0.15
CG33232 (retired record) | 1 | 0.77 | 0.07 | 0.42 | 0.52
CG33232 (retired record) | 2 | 1.38 | 0.79 | 0.27 | 0.48
Nipped-A | 1 | 0.1 | 0.07 | 0.75 | 0.93
Nipped-A | 2 | -2.24 | -2.78 | -2.25 | 0.92
Nipped-A | 3 | -2 | -1.67 | -3.33 | 0.74
Nipped-A | 4 | -1.78 | -2.61 | -2.18 | 1.31
Nipped-A | 5 | -0.72 | -0.59 | -0.52 | -0.09
CG7849 | 1 | 0.17 | 0.54 | -0.38 | -0.23
CG9259 | 1 | 0.1 | -0.71 | 1.81 | 0.12
Crg-1 | 1 | 0.6 | 0.49 | 1.52 | -0.43
jar | 1 | -0.35 | -0.02 | -0.08 | -0.04
Hip1 | 1 | -0.38 | -0.42 | 0.27 | 0.5
stac | 1 | 0.72 | -0.12 | 1.13 | -0.17
stac | 2 | -0.16 | -0.11 | 0.47 | -0.66
stac | 3 | -0.28 | -0.61 | -0.53 | -0.92
CG2493 | 1 | -0.26 | -0.38 | -0.77 | -0.12
Ir85a | 1 | 0.26 | -0.04 | 0.46 | 0.02
Cbp80 | 1 | -0.2 | 0.42 | -2.37 | 3.8
14-3-3zeta | 1 | -1.02 | -1.25 | -2.79 | -0.04
Prosbeta6 | 1 | -1.21 | -3.3 | -2.51 | 1.49
mthl13 | 1 | -0.25 | 0.59 | 0.97 | 0.39
CG14852 | 1 | 0.04 | -0.58 | -0.96 | 0.08
knk | 1 | 0.33 | 0.19 | 0.31 | -0.34
dgt3 | 1 | 0.01 | -0.15 | 0.7 | -0.72
CG4218 | 1 | -0.43 | -0.14 | -0.65 | 0.81
CG4849 | 1 | 2.64 | -2.68 | 1.67 | -1.62
CG15322 | 1 | -0.33 | -3.72 | -0.98 | 1.97
CG17258 | 1 | 0.4 | 2.38 | 0.85 | 1.69
CG17258 | 2 | 0.2 | 0.36 | 0.1 | -0.12
Gycalpha99B | 1 | -0.11 | -0.6 | 0.69 | -0.5
CG17598 | 1 | -1.04 | -0.4 | -0.04 | 0.28
D19B | 1 | -0.56 | -4.41 | -0.36 | 0.12
Ugt303B1 | 1 | 0.54 | -0.04 | -0.81 | 0
Mmp2 | 1 | 1.11 | -0.26 | 0.65 | -0.02
Mmp2 | 2 | 0.12 | 1.37 | -0.36 | -0.05
TwdlE | 1 | 0.73 | -0.09 | 1.6 | 0.24
